Among the data in the supplement of paper PMC3047530 are growth inhibition values, retold here.

This is one part of the list. Many values rest on one well or one pass, so single values are uncertain.

The assay relates to Geomyces destructans. The assay is described as follows: growth inhibition relative to DMSO control; higher = stronger growth inhibition. The conditions noted are these: 10 µM; 15 °C; incubation time 10 days.
Consider `O=c1c(-c2cc(O)c(O)c(O)c2)coc2cc(O)c(O)c(O)c12`, for which the growth inhibition was -23.6%.

Regarding `CC(=O)O[C@@H]1CC2C(C)(CC[C@H](O)C2(C)C)C2CC[C@]3(C)C(=CC(=O)O[C@H]3c3ccoc3)C21C` (stereo partly drawn) [3beta-HYDROXYDEOXODIHYDRODEOXYGEDUNIN], the growth inhibition was found to be 2.83%.

For `CC1(C)[C@@H](O)CC[C@]2(C)[C@H]3C(=O)C=C4[C@H]5C[C@@](C)(C(=O)O)CC[C@]5(C)CC[C@@]4(C)[C@]3(C)CC[C@@H]12` [18alpha-GLYCYRRHETINIC ACID], the growth inhibition was -3.58%.

Regarding `CCCCN1CCCCC1C(=O)Nc1c(C)cccc1C` (stereo not given), the growth inhibition was -3.71%.

Take `CCOC(=O)NNc1nncc2ccccc12`: the growth inhibition is -4.94%.

`Nc1ccn([C@@H]2O[C@H](CO)[C@@H](O)[C@@H]2O)c(=O)n1`: the growth inhibition is -9.22%.

Consider `CC1(C)[C@H]2CC[C@]1(C)C(=O)C2`, for which the growth inhibition was -3.93%.

`O=C(O)[C@H](O)[C@@](O)(Cc1ccc(O)cc1)C(=O)O`: the growth inhibition is -8.82%.

For the compound `Nc1ccc(S(=O)(=O)Nc2ccccn2)cc1`, the growth inhibition is -1.25%.

Consider `CO[C@H]1C[C@H](O[C@H]2[C@H](C)[C@@H](O[C@@H]3O[C@H](C)C[C@H](N(C)C)[C@H]3O)[C@@H](C)C[C@@]3(CO3)C(=O)[C@H](C)[C@@H](O)[C@@H](C)[C@@H](C)OC(=O)[C@@H]2C)O[C@@H](C)[C@@H]1O`, for which the growth inhibition was -30.9%.

Consider `CCOC(=O)c1c(C)cc(O)cc1O`, for which the growth inhibition was -4.12%.

Turning to `CN(C)CCCN1c2ccccc2Sc2ccc(Cl)cc21`, the growth inhibition is -3.41%.

Consider `O=c1ccc2ccccc2o1`, for which the growth inhibition was -4.29%.

Regarding `CC1(C)C=Cc2cc3ccc(=O)oc3cc2O1`, the growth inhibition is -8.86%.

For the compound `COc1cc([C@@H]2c3cc4c(cc3[C@@H](O[C@@H]3O[C@@H]5CO[C@@H](c6cccs6)O[C@H]5[C@H](O)[C@H]3O)[C@H]3COC(=O)[C@H]23)OCO4)cc(OC)c1O`, the growth inhibition is -7.02%.

Consider `O=c1[nH]cnc2c1ncn2[C@@H]1O[C@H](CO)[C@@H](O)[C@H]1O`, for which the growth inhibition turned out to be 0.578%.

For the compound `CCN(CC)CCNc1ccc(CO)c2sc3ccccc3c(=O)c12`, the growth inhibition is -19.8%.

As to `O=c1c(O)cc([C@H]2Oc3cc(O)cc(O)c3C[C@H]2O)cc2c([C@H]3Oc4cc(O)cc(O)c4C[C@H]3O)cc(O)c(O)c12`, the growth inhibition was -12.6%.

For `CN(Cc1cnc2nc(N)nc(N)c2n1)c1ccc(C(=O)N[C@@H](CCC(=O)O)C(=O)O)cc1`, the growth inhibition was 9.86%.

Turning to `O=C(COc1ccc(Cl)cc1)N1CCN(Cc2ccc3c(c2)OCO3)CC1`, the growth inhibition is -0.242%.

Regarding `O=C(O)CCCC[C@@H]1CCSS1` (racemic), the growth inhibition was -13.2%.

In the case of `COc1cc(-c2oc3cc(O)ccc3c(=O)c2O)cc(OC)c1OC`, the growth inhibition is -15.7%.

For the compound `Cc1ccsc1/C=C/C1=NCCCN1C`, the growth inhibition was -10%.

Turning to `CN(C)c1ccc(O)c2c1C[C@H]1C[C@H]3[C@H](N(C)C)C(O)=C(C(N)=O)C(=O)[C@@]3(O)C(O)=C1C2=O`, the growth inhibition was -4.71%.

As to `COc1cccc(OC)c1C(=O)N[C@@H]1C(=O)N2[C@@H]1SC(C)(C)[C@@H]2C(=O)O`, the growth inhibition is -14.8%.

Regarding `Cc1ccc(S(=O)(=O)NC(=O)NN2CCCCCC2)cc1`, the growth inhibition was -3.78%.

As for `CC(C)CCCC(C)C1CCC2C3=CCC4CC(O)CCC4(C)C3CCC21C` (stereo not given), the growth inhibition was -6.28%.

Regarding `CCOC(=O)c1ccc(N)cc1`, the growth inhibition was -32.3%.

Turning to `CCN(CC)CCOC(=O)C(c1ccccc1)c1ccccc1`, the growth inhibition was -10.5%.

Turning to `CC(C)(C)CC(C)(C)c1ccc(O)c(Cc2ccc(Cl)cc2Cl)c1`, the growth inhibition was -0.324%.

For `COC(=O)[C@@H]1OC(=O)[C@H]2O[C@@]23[C@@]1(C)CCC1[C@@]2(C)CCC(=O)C(C)(C)C2C[C@@H](OC(C)=O)[C@]13C` (stereo not given in full), the growth inhibition is -6.96%.

With `CCCCC1(COC(=O)CCC(=O)O)C(=O)N(c2ccccc2)N(c2ccccc2)C1=O`, the growth inhibition came to 0.66%.

For the compound `COc1cc(NC(C)CCCN)c2ncccc2c1` (stereo not given), the growth inhibition was -3.71%.

On to `CN(C)[C@@H]1C(O)=C(C(N)=O)C(=O)[C@@]2(O)C(O)=C3C(=O)c4c(O)cccc4[C@@](C)(O)[C@H]3[C@H](O)[C@@H]12`, for which the growth inhibition was -31.9%.

Turning to `COC1(C)CCC2OC2(C)CCC2C1CC2(C)C` (stereo not given), the growth inhibition was -5.08%.

In the case of `NC(N)=Nc1nc(CSCC/C(N)=N/S(N)(=O)=O)cs1`, the growth inhibition was -30.7%.

Take `Cc1cc(-c2ccccc2)nnc1NCCN1CCOCC1`: the growth inhibition is -6.98%.

Turning to `COc1ccc(-c2cc(=O)c3c(OC(C)=O)cc(OC(C)=O)cc3o2)cc1`, the growth inhibition is 5.98%.

As to `CC1=C(/C=C/C(C)=C/C=C/C(C)=C\C(=O)O)C(C)(C)CCC1`, the growth inhibition is -36.5%.

Consider `CC/C(=C(/CC)c1ccc(O)cc1)c1ccc(O)cc1`, for which the growth inhibition is -4.04%.

Regarding `CSc1ccc2c(c1)N(CCC1CCCCN1C)c1ccccc1S2` (stereo not given), the growth inhibition is -16%.

For the compound `O=C(/C=C/c1ccc(O)c(O)c1)O[C@@H]1C[C@](O)(C(=O)O)C[C@@H](O)[C@H]1O`, the growth inhibition stood at 8.93%.

Take `CC12CCC3c4ccc(OCc5ccccc5)cc4CCC3C1C[C@@H](O)[C@@H]2O` (stereo not given in full): the growth inhibition was -11.2%.

`N=C(N)NCCN1CCCCCCC1`: the growth inhibition came to 2.07%.

For `Cc1cc(=O)c2c(o1)-c1c(cc(O)c(O)c1C(=O)O)OC2`, the growth inhibition is -20.2%.

Turning to `CC(CN(C)C)CN1c2ccccc2Sc2ccccc21` (stereo not given), the growth inhibition was -25.4%.

`CC1(C)[C@@H](OC(=O)CCC(=O)O)CC[C@]2(C)[C@H]3C(=O)C=C4[C@@H]5C[C@@](C)(C(=O)O)CC[C@]5(C)CC[C@@]4(C)[C@]3(C)CC[C@@H]12`: the growth inhibition is -11.2%.

Take `COc1cc(O)ccc1C(C)=O`: the growth inhibition is -18.4%.

`COc1ccc(-c2cc(=O)c3ccccc3o2)cc1OC`: the growth inhibition is -10.2%.

On to `CC(=O)OCC(=O)[C@H]1CC[C@H]2[C@@H]3CCC4=CC(=O)CC[C@]4(C)[C@H]3CC[C@]12C`, for which the growth inhibition was -32.3%.

Take `Nc1ccccc1C(=O)CC(N)C(=O)O` (stereo not given): the growth inhibition is 11.9%.

`CC[C@@H](CO)NCCN[C@@H](CC)CO`: the growth inhibition worked out at 4.21%.

As for `CC1(C)Oc2ccc3ccc(=O)oc3c2CC1O` (stereo not given), the growth inhibition is -4.14%.

As to `NC(=O)c1cccc(N)c1`, the growth inhibition is -15%.

Regarding `COc1ccc2oc3ccccc3c(=O)c2c1`, the growth inhibition is -17.2%.

In the case of `Cc1cc(O)c2c(O)c3c(O)cccc3cc2c1`, the growth inhibition was -7.99%.

Consider `C=CCSCC1Nc2cc(Cl)c(S(N)(=O)=O)cc2S(=O)(=O)N1` (stereo not given), for which the growth inhibition was -17.8%.

On to `CC(=O)c1ccc(O)c(CC=C(C)C)c1`, for which the growth inhibition came to 17%.

Take `c1ccc(CN(CC2=NCCN2)c2ccccc2)cc1`: the growth inhibition is -42.7%.

In the case of `N[C@@H](C(=O)O)[C@@H](O)[C@H](O)[C@H](O)CO`, the growth inhibition was -7.78%.

Consider `COc1c(N2CCNC(C)C2)c(F)cc2c(=O)c(C(=O)O)cn(C3CC3)c12` (stereo not given), for which the growth inhibition is -43.7%.

On to `O=C(c1ccccc1)c1ccc2n1CCC2C(=O)O` (stereo not given), for which the growth inhibition was -3.34%.

With `OCc1ccccc1O`, the growth inhibition is -17.1%.

Regarding `CC1(C)CC2C1CCC1(C)OC2(C)CCC1O` (stereo not given), the growth inhibition was -20.9%.

Regarding `CN1Cc2c(N)cccc2C(c2ccccc2)C1` (stereo not given), the growth inhibition was -2.37%.

Take `COc1ccccc1OCC(O)COC(N)=O` (stereo not given): the growth inhibition was 43.3%.

In the case of `Nc1c2c(nc3ccccc13)CCCC2O` (stereo not given), the growth inhibition is -2.54%.

Turning to `Cc1cc(N)c2ccccc2[n+]1CCCCCCCCCC[n+]1c(C)cc(N)c2ccccc21`, the growth inhibition turned out to be 82.4%.

For `CNc1ccccc1C(=O)N1CCc2c([nH]c3ccccc23)C1=O`, the growth inhibition is -4.45%.

As for `COc1ccc2c(=O)c(CC(=O)O)coc2c1`, the growth inhibition is -8.34%.

Regarding `COc1ccc2cc(C(C)C(=O)O)ccc2c1` (single isomer, unassigned; (+)), the growth inhibition is -0.0519%.

In the case of `NCCNC(=O)c1ccc(Cl)cc1`, the growth inhibition is -12.2%.

For `N=C(N)NC(=O)c1nc(Cl)c(N)nc1N`, the growth inhibition was -38.5%.

In the case of `CC(=O)O[C@H]1CC[C@]2(C)C(C[C@@H](OC(C)=O)[C@]3(C)C4=CC(=O)O[C@H](c5ccoc5)[C@@]4(C)CCC23)C1(C)C` (stereo partly drawn) [3-DEOXO-3beta-ACETOXYDEOXYDIHYDROGEDUNIN], the growth inhibition is -9.65%.

As for `NC1(C(=O)O)CCC1`, the growth inhibition is -38.6%.

For `CC(CN1c2ccccc2Sc2cccnc21)N(C)C` (stereo not given), the growth inhibition is -3.21%.

Turning to `CCC1(O)CC(OC2CC(N(C)C)C(OC3CC(O)C(OC4CCC(=O)C(C)O4)C(C)O3)C(C)O2)c2c(cc3c(c2O)C(=O)c2c(O)cccc2C3=O)C1C(=O)OC` (stereo not given), the growth inhibition was -12.7%.

Regarding `CC(C)(O)[C@H]1CC[C@]2(C)[C@H]3CC[C@@H]4[C@@]5(C)CCCC(C)(C)[C@@H]5[C@@H](O)C[C@@]4(C)[C@]3(C)CC[C@@H]12`, the growth inhibition is -4.24%.

In the case of `COc1cccc(OC)c1OCCNCC1COc2ccccc2O1` (stereo not given), the growth inhibition is -37%.

In the case of `CCCCC1=NC2(CCCC2)C(=O)N1Cc1ccc(-c2ccccc2-c2nnn[nH]2)cc1`, the growth inhibition is -6.39%.

As to `CC[C@H]1OC(=O)[C@H](C)[C@@H](O[C@H]2C[C@@](C)(OC)[C@@H](O)[C@H](C)O2)[C@H](C)[C@@H](O[C@@H]2O[C@H](C)C[C@H](N(C)C)[C@H]2O)[C@](C)(OC)C[C@@H](C)C(=O)[C@H](C)[C@@H](O)[C@]1(C)O`, the growth inhibition is -13.4%.

In the case of `CCCCOC(=O)c1ccc(N)cc1`, the growth inhibition is -11%.

In the case of `CC1=CC2C(C(C)C)CCC(C)(O)C2CC1` (stereo not given), the growth inhibition was -7.2%.

For `C=NC(C(=O)NC1C(=O)N2C1SC(C)(C)C2C(=O)O)c1ccccc1` (stereo not given), the growth inhibition was -35.5%.

As to `CC(C)COCC(CN(Cc1ccccc1)c1ccccc1)N1CCCC1` (stereo not given), the growth inhibition was -6.3%.

Regarding `CCC(CCC(C)C1CCC2C3CCC4CC(O)CCC4(C)C3CCC12C)C(C)C` (stereo not given), the growth inhibition stood at 1.15%.

On to `CCOc1ccc2c(c1)C(C)=CC(C)(C)N2`, for which the growth inhibition is -7.38%.

Take `C#CCCCCCCCCCCCC(O)CC(O)CO.C=CCCCCCCCCCCCC(O)CC(O)CO` (stereo not given): the growth inhibition stood at 2.6%.

As to `CCOC(=O)[C@H](CCc1ccccc1)N[C@@H](C)C(=O)N1[C@H](C(=O)O)C[C@@H]2CCC[C@@H]21`, the growth inhibition is -24.2%.

On to `NS(=O)(=O)c1cc2c(cc1Cl)N=CNS2(=O)=O`, for which the growth inhibition is -4.74%.

As for `O=c1c(O)c(-c2ccc(O)c(O)c2)oc2cc(O)ccc12`, the growth inhibition is -38.6%.

`CN[C@H](CC(C)C)C(=O)N[C@H]1C(=O)N[C@@H](CC(N)=O)C(=O)N[C@H]2C(=O)N[C@H]3C(=O)N[C@H](C(=O)N[C@H](C(=O)O)c4cc(O)cc(O)c4-c4cc3ccc4O)[C@H](O)c3ccc(c(Cl)c3)Oc3cc2cc(c3O[C@@H]2O[C@H](CO)[C@@H](O)[C@H](O)[C@H]2O[C@H]2C[C@](C)(N)[C@H](O)[C@H](C)O2)Oc2ccc(cc2Cl)[C@H]1O`: the growth inhibition was -16.4%.

On to `O=C(O)c1cc2cc(Cl)ccc2[nH]1`, for which the growth inhibition was -26.1%.

As for `Cc1cc(C2CCCCC2)n(O)c(=O)c1`, the growth inhibition stood at 85.7%.

Turning to `CC(=O)Oc1cc(C)c2c(c1C(OC(C)=O)OC(C)=O)Oc1c(c(C)c(OC(C)=O)c3c1C(OC(C)=O)OC3=O)OC2=O` (stereo not given), the growth inhibition is -8.34%.
